# In all, about 410,000 compounds went through this assay and about 310 (0.076%) were called active. Inconclusive means that the source gave no clear call. Such entries were picked first, then a sample of the others. The call rests on the fitted dose curve; in most records, active means well fitted activation curve with a large enough effect; inconclusive means small, poorly fitted or top-dose-only effect, or another doubt; inactive means no such curve, though single readings can be large or run the other way. Potencies of inconclusive entries are doubtful fits and often do not repeat.
# Protein sequences, listed by entry. Tags and fused reporters are not part of them.
# UniProt Q03431, whole entry, looked up: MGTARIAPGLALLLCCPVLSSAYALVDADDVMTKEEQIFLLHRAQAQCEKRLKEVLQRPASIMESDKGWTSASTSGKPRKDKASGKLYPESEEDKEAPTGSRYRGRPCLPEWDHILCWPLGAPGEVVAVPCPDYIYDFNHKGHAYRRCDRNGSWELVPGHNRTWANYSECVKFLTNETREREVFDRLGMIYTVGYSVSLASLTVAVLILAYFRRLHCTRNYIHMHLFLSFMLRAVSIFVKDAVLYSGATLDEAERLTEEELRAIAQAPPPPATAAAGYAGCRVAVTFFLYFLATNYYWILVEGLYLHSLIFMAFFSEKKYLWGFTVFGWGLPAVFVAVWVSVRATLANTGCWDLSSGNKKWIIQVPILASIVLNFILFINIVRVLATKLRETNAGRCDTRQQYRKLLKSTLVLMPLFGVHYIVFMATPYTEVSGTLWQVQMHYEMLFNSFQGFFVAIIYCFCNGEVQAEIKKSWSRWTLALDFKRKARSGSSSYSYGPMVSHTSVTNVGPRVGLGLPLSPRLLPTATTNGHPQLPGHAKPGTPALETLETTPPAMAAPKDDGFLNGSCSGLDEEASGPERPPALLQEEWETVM
# Target: Parathyroid hormone/parathyroid hormone-related peptide receptor (Homo sapiens) (UniProt Q03431)
# Assay: qHTS for PTHR1 Agonists: Primary Screen; further: nearly all actives have a fitted effect of over 55% in size
# Conditions: HEK293 GP2 PTHR1 cells, GloSensor cAMP luminescence, 1 h; activation: at 115 µM (top of the series) unless noted; series mostly up to 115 µM
# Procedure, shortened: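 HEK-293-derived GP2 cells expressing PTHR1 and a GloSensor cAMP reporter, 3,000/well, plated overnight, given luciferin plus IBMX (each 0.5 mM as added) for 1 h at 37 °C, then compound for 1 h at 37 °C. Luminescence was read after 15 min at room temperature.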
# Potency means the concentration at half of the fitted maximal effect.
SMILES,activation,Potency,outcome
C=CCC(Nc1ccccc1)C12C=CC(O1)C(C(=O)OC)=C2C(=O)OC (centres undefined),inactive: -11.3% [at 57.5 µM],,
Cc1cc(=O)oc2cc(OCC(=O)OCC(=O)N3CCC(C)CC3)ccc12,,"inconclusive: 39.8 µM [activator, partial curve, poor fit]",
COC(=O)c1ccccc1NC(=O)Cc1nc(-c2ccc(OC)cc2)no1,,active: 50.1 µM,
O=C(c1cc2ccccc2[nH]1)N1O[C@@H]2C=C[C@H]1C2,,"inconclusive: 50.1 µM [activator, partial curve, poor fit]",
CCc1nn(CC(=O)Nc2c(C)cc(C)cc2C)c(=O)c2cc3sccc3n12,,"inconclusive: 39.8 µM [activator, partial curve, poor fit]",
Cc1ccc(N2C(=O)N(CC(=O)Nc3cc(C)cc(C)c3)C(=O)C2C)cc1 (centres undefined),inactive: -4.53%,,
Clc1cccc(-c2noc3ncnc(NC4CCCCC4)c23)c1,inconclusive: -53.6% [activator],,
O=C(CN1C(=O)CCS(=O)(=O)c2ccccc21)Nc1cccc(F)c1,,"inconclusive: 39.8 µM [activator, single point]",
O=C(NCCCN1CCCC1)c1ccc2c(c1)N(Cc1ccccc1)CCS2,inactive: -21.2%,,
Cc1oc(-c2ccccc2Cl)nc1CN1CCCC1c1ccc(F)cc1 (centres undefined),,"inconclusive: 6.31 µM [activator, full curve, poor fit]",
O=C(Nc1ccn(Cc2c(F)c(F)cc(F)c2F)n1)c1cccc(Cn2cc([N+](=O)[O-])cn2)c1,,"inconclusive: 50.1 µM [activator, single point]",
Cc1c(C(=O)NC(=S)Nc2ccc3c4c(cccc24)CC3)cccc1[N+](=O)[O-],inconclusive: 79.3% [activator],,
COC(=O)c1c(N)sc2c1CC(C)(C)OC2,inconclusive: 30.5% [activator],,
COc1ccc2c(c1)CCc1c(C(=O)Nc3c(C)nn(Cc4ccccc4Cl)c3C)noc1-2,,,inactive
COc1ccc(C(c2c(C)n(C)n(-c3ccccc3)c2=O)c2c(C)n(C)n(-c3ccccc3)c2=O)cc1OC,,"inconclusive: 15.8 µM [activator, full curve, poor fit]",
CCOC(=O)c1c(C(=O)OCC)c(C)n(Cc2cc(OC)c(OC)c(OC)c2)c1C,,,inactive
CCCNc1nc(-c2ccccc2)c(C(=O)OCC)cc1C#N,,"inconclusive: 3.85 µM [activator, full curve]",
CN1CCC(N(C)S(=O)(=O)c2ccc(NC(=O)COc3ccc(Br)cc3Cl)cc2)CC1,inconclusive: -56.9% [activator],,
Cc1cc(NC(=O)CSc2nnc(-c3ccc(Cl)s3)o2)no1,inconclusive: -79.6% [activator] [at 57.5 µM],,
CCCCNc1c(-c2ccc(SC3CCCCC3)cc2)nc2ccccn12,,inactive,
COc1ccc(C(=O)N(CCc2ccccc2)Cc2ccccc2)c(OC)n1,,,inactive
Cc1sc(C2C(C#N)=C(N)N(c3cccc(Cl)c3)C3=C2C(=O)CCC3)cc1CN1CCOCC1 (centres undefined),,"inconclusive: 63.1 µM [activator, partial curve, poor fit]",

# Molecules listed so far that have a nitro group on carbon, in the order listed:
SMILES,activation,Potency,outcome
O=C(Nc1ccn(Cc2c(F)c(F)cc(F)c2F)n1)c1cccc(Cn2cc([N+](=O)[O-])cn2)c1,,"inconclusive: 50.1 µM [activator, single point]",
Cc1c(C(=O)NC(=S)Nc2ccc3c4c(cccc24)CC3)cccc1[N+](=O)[O-],inconclusive: 79.3% [activator],,

# (continued)

SMILES,activation,Potency,outcome
CCc1cccc(CC)c1NC(=O)CCS(=O)(=O)c1ccc(Br)cc1,inconclusive: 34% [activator],,
Cc1ccc(S(=O)(=O)NC(C)(C)CN2CCNCC2)cc1,inactive: -9.11%,,
COc1ccc(C(=O)N2CCCCCCC2)cc1OC1CCN(C(C)C)CC1,,"inconclusive: 1.41 µM [activator, partial curve, poor fit]",
COc1ccc(-c2nn(-c3ccccc3)cc2C(=O)NCCCn2ccnc2)cc1,,"inconclusive: 56.2 µM [activator, partial curve, poor fit]",
CCOC(=O)c1cnc2ccc(OC)cc2c1NCCc1ccccc1,inconclusive: -84.4% [activator],,
O=C(CN1C(=O)c2ccccc2S1(=O)=O)NCc1ccccn1,,"inconclusive: 1.12 µM [activator, full curve, poor fit]",
CSc1nc2ccc(NC(=O)c3nn(C(C)C)c(=O)c4ccccc34)cc2s1,,"inconclusive: 14.1 µM [activator, partial curve]",
COc1ccc(NC(=O)/C=C/C(=O)O)cc1Cl,inactive: -16.9%,,
O=C(NCc1ccccc1)c1cc(C2COCCN2C(=O)C2CC2)on1 (centres undefined),inactive: 11.3%,,
Cc1ccc(-n2c(=O)c3c(C)c(C(=O)N(C)C)sc3n(CC(=O)C(C)(C)C)c2=O)cc1C,,,inactive
Cc1cccc(C(=O)N[C@H](C(=O)Nc2ccc(C)c(S(=O)(=O)N3CCOCC3)c2)C(C)C)c1,inactive: -1.88%,,
CCN(CC)S(=O)(=O)c1ccc(OC)c(NC(=O)c2ccc(OC)c([N+](=O)[O-])c2)c1,,"inconclusive: 1 µM [activator, partial curve, poor fit]",
CCC(Oc1ccccc1)C(=O)O/N=C(\N)c1ccc(OC)c(OC)c1 (centres undefined),inactive: -31.6%,,
Cc1c(Cl)cccc1NC(=O)Cn1c(CCC(=O)O)ccc1-c1cccs1,,"inconclusive: 79.4 µM [activator, partial curve, poor fit]",
COc1ccc(Cn2nnnc2CN2CCCCCC2)cc1,,"inconclusive: 2.42 µM [activator, full curve, poor fit]",
O=C(Nc1ccccc1C(=O)O)c1cccc(NC(=O)c2ccc(Br)o2)c1,,"inconclusive: 35.5 µM [activator, single point]",
COc1ccc(CN2CCN(Cc3ccco3)CC2)cc1OC,,,inactive
Cc1ccc(-c2[nH]c3cc(C(=O)NCCCn4ccnc4)ccc3c(=O)c2O)cc1,,,inactive
O=C(O)c1cn2c3c(ccc(Cl)c3c1=O)OCC2,,"inconclusive: 15.8 µM [activator, partial curve, poor fit]",
CC(C)CN(CCCNC(=O)Cn1ncc2c3ccccc3n(C)c2c1=O)CC(C)C,inactive: -28.8%,,
CCC/C(O)=C1\C(=O)CCCC1=NCCc1c(C)[nH]c2ccc(OC)cc12,,"inconclusive: 3.55 µM [activator, full curve]",
COc1ccc(C2/C=C\CN(C(=O)NC34CC5CC(CC(C5)C3)C4)CC(=O)N2Cc2ccc(F)cc2)cc1 (centres undefined),inconclusive: 37.8% [activator],,

# Source: PubChem BioAssay AID743266 (National Center for Advancing Translational Sciences (NCATS), 2014)
